Results reported in patent US20170128596A1, “Peptide-Based Compounds and Their Uses for Tumor Imaging and Targeting” (Klinikum rechts der lsar der Technischen Universitaet …, priority 2014, published 2017).
Not every detail of the peptide structures is certain; ends, links or a residue may be inferred.

Amino acid sequences for entries named in this document (tags omitted).
UniProt Q61696, whole entry: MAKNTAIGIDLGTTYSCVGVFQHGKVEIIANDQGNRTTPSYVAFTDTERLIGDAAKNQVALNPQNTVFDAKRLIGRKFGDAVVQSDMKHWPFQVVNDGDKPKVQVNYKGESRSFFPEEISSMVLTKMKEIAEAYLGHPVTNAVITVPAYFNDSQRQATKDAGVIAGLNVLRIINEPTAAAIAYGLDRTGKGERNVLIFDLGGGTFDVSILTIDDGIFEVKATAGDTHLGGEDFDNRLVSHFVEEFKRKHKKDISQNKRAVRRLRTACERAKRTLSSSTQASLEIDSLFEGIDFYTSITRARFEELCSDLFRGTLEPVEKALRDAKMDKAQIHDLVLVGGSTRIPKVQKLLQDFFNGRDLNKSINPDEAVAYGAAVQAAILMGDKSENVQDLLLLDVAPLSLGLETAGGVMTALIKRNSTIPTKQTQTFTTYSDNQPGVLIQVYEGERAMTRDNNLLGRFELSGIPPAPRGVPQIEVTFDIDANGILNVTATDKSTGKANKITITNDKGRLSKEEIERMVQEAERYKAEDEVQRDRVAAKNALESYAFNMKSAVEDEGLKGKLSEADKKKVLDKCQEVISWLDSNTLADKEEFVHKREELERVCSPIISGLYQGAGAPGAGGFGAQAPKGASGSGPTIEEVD
UniProt P0DMV8, whole entry: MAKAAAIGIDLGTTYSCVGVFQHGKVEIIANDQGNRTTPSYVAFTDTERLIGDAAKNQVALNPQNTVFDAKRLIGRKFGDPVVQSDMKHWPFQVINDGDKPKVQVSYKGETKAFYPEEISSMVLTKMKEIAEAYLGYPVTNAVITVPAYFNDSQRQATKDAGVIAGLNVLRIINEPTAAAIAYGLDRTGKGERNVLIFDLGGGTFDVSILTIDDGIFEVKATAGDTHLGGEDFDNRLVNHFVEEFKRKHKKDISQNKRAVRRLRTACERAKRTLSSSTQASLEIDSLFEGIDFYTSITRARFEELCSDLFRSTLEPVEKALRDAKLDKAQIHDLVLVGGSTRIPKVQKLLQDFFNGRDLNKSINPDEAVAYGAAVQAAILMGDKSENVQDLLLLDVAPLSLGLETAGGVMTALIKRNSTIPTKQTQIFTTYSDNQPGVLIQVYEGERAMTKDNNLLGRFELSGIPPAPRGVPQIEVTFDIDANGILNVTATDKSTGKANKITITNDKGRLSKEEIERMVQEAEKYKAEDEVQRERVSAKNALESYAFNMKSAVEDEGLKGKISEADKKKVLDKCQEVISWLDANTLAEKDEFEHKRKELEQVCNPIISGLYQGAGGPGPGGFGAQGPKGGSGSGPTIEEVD

How the values were obtained:
membrane-Hsp70 [1] = target: T1, membrane-Hsp70 (Mus musculus, UniProt Q61696); experiment: Flow cytometry of single cell suspensions of in vivo-grown mouse tumors: membrane-Hsp70 positive cells; type: cell-based; settings: murine
T1 construct: The membrane-Hsp70 phenotype of tumors grown in vivo was determined by flow cytometric analysis of single cell suspensions; endogenous in cells; host or cells: single cell suspensions of mouse tumors grown in mice (e.g. CT26 colon, 4T1 mammary, PDAC and colitis-associated carcinoma models)

membrane-Hsp70 [2] = target: T2, membrane-Hsp70 (Homo sapiens, UniProt P0DMV8); experiment: Flow cytometry of single cell suspensions of in vivo-grown human (xenograft) tumors: membrane-Hsp70 positive cells; type: cell-based
T2 construct: The membrane-Hsp70 phenotype of tumors grown in vivo was determined by flow cytometric analysis of single cell suspensions; endogenous in cells; host or cells: single cell suspensions of human tumor xenografts grown in mice (e.g. HCT-116, CX-2, MCF-7, MDA-MB231, T-47D, H-1339, CAL-33, HeLa, Panc-1, MIA PaCa-2, COLO357)

[3] = system: tumor-associated fibroblasts and tumor-infiltrating macrophages; experiment: Flow cytometry of cells of the tumor microenvironment; type: cell-based, mouse
[4] = system: MCF7, MDA-MB-231, T47D cells; experiment: Peptide uptake into human breast cancer cell lines by confocal microscopy; type: cell-based; settings: 30 min at 37° C.
Protocol: Human breast cancer cell lines (MCF7, MDA-MB-231, T47D) expressing different levels of membrane Hsp70 were incubated with CF-TPP or a scrambled peptide for 30 min at 37° C. and internalization of the peptides was imaged by confocal microscopy.

CC(C)C[C@H](NC(=O)[C@H](CC(C)C)NC(=O)[C@H](CC(N)=O)NC(=O)[C@H](CC(N)=O)NC(=O)[C@H](CC(=O)O)NC(=O)[C@H](CCCCN)NC(=O)[C@@H](N)[C@@H](C)O)C(=O)NCC(=O)N[C@@H](CCCNC(=N)N)C(=O)N[C@@H](Cc1ccccc1)C(=O)N[C@@H](CCC(=O)O)C(=O)N[C@@H](CC(C)C)C(=O)N[C@@H](CO)C(=O)NCC(=O)O [TPP, TKDNNLLGRFELSG]
proportion of membrane-Hsp70 positive cells (membrane-Hsp70 [1]; 4T1, mammary): 47.5 ± 2.1%
proportion of membrane-Hsp70 positive cells (membrane-Hsp70 [1]; CAC, colon): 52.8 ± 7.5%
proportion of membrane-Hsp70 positive cells (membrane-Hsp70 [1]; CT26, colon): 42.0 ± 4.3%
proportion of membrane-Hsp70 positive cells (membrane-Hsp70 [1]; PDAC, pancreas): 45.0 ± 1%
proportion of membrane-Hsp70 positive cells (membrane-Hsp70 [2]; A549, lung): 58.3 ± 7%
proportion of membrane-Hsp70 positive cells (membrane-Hsp70 [2]; COLO35, pancreas): 49.5 ± 4. %
proportion of membrane-Hsp70 positive cells (membrane-Hsp70 [2]; CX-2, colon): 45.2 ± 5. %
proportion of membrane-Hsp70 positive cells (membrane-Hsp70 [2]; Cal-33, head & neck): 52.0 ± 4%
proportion of membrane-Hsp70 positive cells (membrane-Hsp70 [2]; FaDu, head & neck): 53.5 ± 0%
proportion of membrane-Hsp70 positive cells (membrane-Hsp70 [2]; H-1339, lung): 67.0 ± 5%
proportion of membrane-Hsp70 positive cells (membrane-Hsp70 [2]; HCT-116, colon): 59.0 ± 7.9%
proportion of membrane-Hsp70 positive cells (membrane-Hsp70 [2]; HeLa, cervix): 63.0 ± 4. %
proportion of membrane-Hsp70 positive cells (membrane-Hsp70 [2]; MCF-7, mammary): 46.0 ± 5.6%
proportion of membrane-Hsp70 positive cells (membrane-Hsp70 [2]; MDA-MB231, mammary): 62.5 ± 15.6%
proportion of membrane-Hsp70 positive cells (membrane-Hsp70 [2]; MIAPa, pancreas): 42.0 ± 6%
proportion of membrane-Hsp70 positive cells (membrane-Hsp70 [2]; Panc-1, pancreas): 47.0 ± 7%
proportion of membrane-Hsp70 positive cells (membrane-Hsp70 [2]; T-47D, mammary): 43.5 ± 2.1%
membrane staining (positive cells) ([3]; tumor-associated fibroblasts (CD45-/CD140b+)): below 10%
membrane staining (positive cells) ([3]; tumor-infiltrating macrophages (CD45+/F4/80+)): below 10%
internalization into tumor cells [4]: internalized into the tumor cell lines
